Screening data, single-dose tests

Data taken from ChEMBL document CHEMBL3988442, “University of Dundee, Small-Polar-MMV Screening Library” (2021).

Each number is a percent effect as filed. How 0% and 100% were set is not recorded. Most values in the screen are low, and negative values occur. Compounds were drawn at random from those tested, without regard to their results.

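Assay of Toxoplasma gondii numbers, read through their beta-galactosidase reporter with a colour substrate. Tested at 50 µM. The record gives no direction; the compounds picked for IC50 retests had high values, so higher reads as fewer parasites. Size under these conditions: about 18,000 compounds, about 170 of them at 50% or above in at least one test.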

compound: CCc1ccc(CN2CCN(C(=O)C(C)N)CC2)s1 (centres unmarked)
Percent Effect: 10.44%

compound: Cc1nnc(NC(=O)NCC2CCNCC2)s1
Percent Effect: 0.9427%

compound: CN(C)c1ccc(CN2CC[C@](C)(O)C(C)(C)C2)cn1
Percent Effect: -10.02%

compound: N[C@@H]1CCCc2c(F)cc(F)cc21
Percent Effect: 13.09%

compound: N#CCCCS(=O)(=O)NC1(CN)CCCC1
Percent Effect: 3.5%

compound: CC1CC(=O)NCCN1 (centres unmarked)
Percent Effect: -17.37%

compound: Cc1ccc(C(=O)N(C)C)cn1
Percent Effect: 10.17%

compound: CCN(C(=O)NC(C)C)C(C)CS(=O)(=O)CC (centres unmarked)
Percent Effect: 3.58%

compound: CN(C)CCSc1nnnn1-c1ccccc1
Percent Effect: 0.6689%

compound: O=C(Cc1ccc(O)c(Cl)c1)NCC1CCOC1 (centres unmarked)
Percent Effect: -2.877%

compound: COc1ccc(CC(C)N)c(OC)c1OC (centres unmarked)
Percent Effect: 4.421%

compound: Cc1nn(CCNCCS(C)(=O)=O)c(C)c1Br
Percent Effect: 18.73%

compound: O=C(CN1CCCC1c1ccco1)N1CCOCC1 (centres unmarked)
Percent Effect: 8.158%

compound: c1ccc(CNc2ccncc2)nc1
Percent Effect: 45.63%

compound: CNC(=O)c1ccc(NC(=O)c2ccc(C)cc2)cc1
Percent Effect: -2.36%

compound: CCNc1nnc(SCc2ncccc2C)s1
Percent Effect: 13.84%

compound: NCc1ccnc(OC(F)F)c1
Percent Effect: -66.19%

compound: O=C1CCN(C(=O)CCc2ccc(Br)cc2F)CCN1
Percent Effect: -12.79%

compound: CC(N)C(=O)Nc1ccc(-n2nccn2)cc1 (centres unmarked)
Percent Effect: -17.44%

compound: OC1CCN(CC(O)COc2ccccc2)CC1 (centres unmarked)
Percent Effect: -8.614%

compound: CN1CCCN(c2nc3ccccc3cc2CO)CC1
Percent Effect: 11.5%

compound: CC1CN(C)CCN1C(=O)NCc1ccccc1F (centres unmarked)
Percent Effect: -7.927%

compound: COc1nc(C)cc(C)c1CO
Percent Effect: -1.433%

compound: c1n[nH]c2c1CNCC2
Percent Effect: 14.93%

compound: C1CN[C@H]2COC[C@H]2C1
Percent Effect: 16.96%

compound: CCC(N)c1ccc(F)cc1F (centres unmarked)
Percent Effect: 5.831%

compound: COc1cc(C(C)=O)ccc1O
Percent Effect: 1.39%

compound: Cc1ccnc(CC2CCCN2)c1 (centres unmarked)
Percent Effect: 42.65%

compound: Cc1nnc(SCC(=O)Nc2ccccc2C#N)[nH]1
Percent Effect: -24.53%

Repeated from the top, 3 entries:

With CCc1ccc(CN2CCN(C(=O)C(C)N)CC2)s1 (centres unmarked) the screen gave 10.44%.
With Cc1nnc(NC(=O)NCC2CCNCC2)s1 the screen gave 0.9427%.
With CN(C)c1ccc(CN2CC[C@](C)(O)C(C)(C)C2)cn1 the screen gave -10.02%.